For 63 compounds, cell number change and AC50 results are on record in PubChem BioAssay AID2685 (National Center for Advancing Translational Sciences (NCATS), 2010).

Some of the results follow. Further columns of the screen follow, without active or inactive calls. The list favours compounds with an active or inconclusive main result. The note in brackets gives the kind of curve behind each potency; many fits are weak.

A short description of the experiment: qHTS Assay for Lipid Storage Modulators in Drosophila S3 Cells.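 As to cell number change: cells counted by Cell Tracker Red CMTPX staining in the red channel.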 Conditions: BODIPY lipid droplet fluorescence, 18-24 h; for cell number change: measured here: cell count max response, cells fed with added oleic acid. In a few lines: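 Drosophila S3 cells loaded with oleic acid (400 uM, as added) and compounds at several concentrations; lipid droplets imaged by 488-nm laser-scanning cytometry, 500–530 nm intensity and object ratio to cell channel. Percent activity normalized to 20 uM Triacsin C.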

The mark [1] stands for this setting: measured here: lipid fluorescence (Fed channel) AC50, cells fed with added oleic acid.
The mark [2] stands for this setting: measured here: cell number channel AC50, cells fed with added oleic acid.

For the compound `COC(=O)c1c(NC(=O)COC(=O)CNC(=O)c2ccco2)sc(C)c1C`, the cell number change is 16.8%. Moreover, under setting [1], the AC50 is 0.58 µM [rising, partial curve, poor fit].

Regarding `Cc1ccc(NC(=O)COc2ccc(C3SCCS3)cc2)cc1`, the cell number change came to 15.7%. The AC50 under setting [1] was 29.1 µM [rising, single point].

As for `COn1c(SC2CCCCC2)nc2ccccc2c1=O`, the cell number change is -1.9%. For the same compound, the AC50 under setting [1] is 32.6 µM [falling, single point]. For `CC(=Nc1cccc(O)c1)c1sc2ccccc2c1O`, the AC50 was 5.8 µM [falling, partial curve] under setting [2] and 5.17 µM [falling, partial curve] under setting [1]. As to `COc1ccc(Nc2cc(=O)oc3ccccc23)cc1`, the AC50 under setting [1] is 0.13 µM [falling, full curve, poor fit]. For `CCC(=O)NC(c1ccccc1)c1c(O)ccc2ccccc12` (stereo unspecified), the cell number change turned out to be 5.56%. Besides, the AC50 under setting [1] is 0.116 µM [rising, full curve, poor fit]. On to `COc1ccc(C2c3[nH]c4ccccc4c3C[C@H]3C(=O)N(CC(C)C)CC(=O)N23)c(OC)c1` (stereo partly specified), for which the cell number change stood at 9.92%. For the same compound, the AC50 under setting [1] is 6.51 µM [rising, single point]. Take `CCOC(=O)CSc1ncc(-c2cccc(Cl)c2)cn1`: the cell number change was -12.6%.

With `CCOC(=O)c1cc(COc2cc(Cl)cc(Cl)c2)on1`, the cell number change was -4.89%. Also, the AC50 under setting [2] was 0.0058 µM [falling, full curve, poor fit]. In addition, under setting [1], the AC50 is 2.59 µM [falling, partial curve, poor fit].

As to `O=C(CN1C(=O)/C(=C/c2ccccc2F)Oc2ccccc21)N1CCN(c2ccccn2)CC1`, the cell number change is -27.9%. Moreover, the AC50 under setting [1] was 0.92 µM [rising, full curve]. Regarding `Cc1ccc(NC(=O)c2cnccn2)cc1S(=O)(=O)N(C)C`, the cell number change was 7.95%. Moreover, the AC50 under setting [1] was 23.1 µM [rising, single point]. On to `CC(C)(C)c1ccc(OCC(=O)NCC(c2cccs2)N2CCOCC2)cc1` (stereo unspecified), for which the cell number change turned out to be 76.3%. For the same compound, the AC50 under setting [2] was 23.1 µM [rising, partial curve]. With `CN(Cc1ccccc1)c1ccc(C(=O)O)cc1[N+](=O)[O-]`, the cell number change amounted to 28.4%. For the same compound, the AC50 under setting [1] is 29.1 µM [rising, partial curve, poor fit].

Turning to `O=C(COC(=O)c1cccc(NS(=O)(=O)/C=C/c2ccccc2)c1)Nc1ccccc1OC(F)F`, the cell number change turned out to be 32.6%. Further, the AC50 under setting [2] is 5.8 µM [rising, partial curve]. In addition, under setting [1], the AC50 is 3.66 µM [rising, partial curve]. Consider `CCNC(=O)COc1ccc(C=O)cc1OC`, for which the cell number change came to 12.7%. Besides, under setting [2], the AC50 is 0.00461 µM [rising, full curve, poor fit]. Consider `CCCc1nnc(NC(=O)CCC(=O)N2CCN(CCn3c(C)ccc3C)CC2)s1`, for which the cell number change was -36.1%. For the same compound, under setting [2], the AC50 was 2.06 µM [falling, partial curve]. Besides, the concentration at half-maximal activity (AC50) under setting [1] is 0.58 µM [falling, partial curve]. In the case of `COc1ccccc1NC(=O)Nc1ccc(N2CCOCC2)cc1`, the AC50 under setting [1] is 0.0517 µM [falling, full curve, poor fit].

As to `Cc1nc2oc3ccccc3c(=O)c2cc1C(=O)O`, the cell number change stood at 11.3%. For the same compound, under setting [1], the AC50 is 0.731 µM [rising, single point]. Turning to `Cc1ccc(OCCCC(=O)N2CCOCC2)c(C)c1`, the cell number change is -2.66%. In addition, the AC50 under setting [1] is 32.6 µM [rising, single point]. Take `Cc1c(CCC(=O)O)c(=O)oc2cc(OCc3cccc(Cl)c3)ccc12`: the cell number change is -10%. Further, under setting [1], the AC50 is 0.00517 µM [falling, full curve, poor fit]. Consider `COc1ccc(C2CC(=O)C=C(NNS(=O)(=O)c3ccc(C)cc3)C2)cc1` (stereo unspecified), for which the cell number change was found to be 23.1%. Further, the AC50 under setting [1] was 5.8 µM [rising, partial curve]. Consider `Cc1ccc2[nH]c3nc(N/N=C/c4cccc(O)c4)nnc3c2c1`, for which the cell number change is -27%. In addition, under setting [1], the AC50 was 1.3 µM [rising, full curve].

As to `Cc1sc2nc(CN(CCc3ccccc3)C(=O)c3ccco3)[nH]c(=O)c2c1C`, the cell number change is -20.3%.

Turning to `CCc1nn(CC(=O)NCCN2CCOCC2)c(=O)c2cc3c(OC)cccc3n12`, the cell number change is -1.83%. The same measure, in the same setting: next, `O=C(COc1ncnc2ccccc12)c1ccc(Cl)cc1`: -5.35%. Turning to `COc1ccc(CN2CCCC(C(=O)c3cccc(OC(C)C)c3)C2)cc1Cn1cccn1` (stereo unspecified), the cell number change was 3.74%. For the same compound, the AC50 under setting [1] was 0.146 µM [falling, full curve, poor fit]. On to `O=C1c2ccccc2NC(c2cccnc2)N1c1ccccc1F` (stereo unspecified), for which the cell number change stood at 52.1%. Also, under setting [2], the AC50 is 20.6 µM [rising, single point].

On to `CSc1ccc(C2CC(=O)Nc3c2c(=O)n(C)c(=O)n3C)cc1` (stereo unspecified), for which the cell number change was 6.39%. The AC50 under setting [1] was 0.13 µM [falling, full curve, poor fit].

For `N=C1/C(=C/c2cccn2-c2ccc([N+](=O)[O-])cc2)C(=O)N=C2SC=CN12`, the half-maximal activity concentration (AC50) under setting [1] is 0.103 µM [rising, full curve]. In the case of `COc1ccc(CNC(=O)CCNC(=O)N2CCn3c2nc2ccccc23)cc1`, the cell number change is 15.6%. Regarding `CCc1nc2ccccc2c(C(=O)OC2CCCCC2=O)c1C` (stereo unspecified), under setting [1], the AC50 was 0.651 µM [rising, partial curve, poor fit]. `COc1ccccc1NC(=O)c1cc(N2C(=O)C3C4CCC(C4)C3C2=O)ccc1Cl` (stereo unspecified): the cell number change was -10.4%. Moreover, the AC50 under setting [1] was 6.51 µM [falling, single point].

`COc1ccc(/C=N/n2c(-c3cccs3)n[nH]c2=S)cc1`: the cell number change was 16.1%. For the same compound, the AC50 under setting [1] is 29.1 µM [rising, single point].

As to `c1csc(CNc2ncnc3ccc(-c4ccc5c(c4)OCO5)cc23)c1`, the cell number change was -8.61%. With `Cc1ccc(C(=O)NCCC(=O)NCc2cc(=O)n(C)c(=O)n2C)cc1`, the cell number change is 6.42%. With `O=Cc1cnc(N2CCN(Cc3ccccc3)CC2)s1`, the cell number change was 17.7%. With `O=C(NCc1ccccc1F)C1CCCN1S(=O)(=O)c1ccc(Cl)cc1` (stereo unspecified), the cell number change is -26.5%. Also, under setting [1], the AC50 was 25.9 µM [falling, single point]. Regarding `COc1cccc(C(=O)NCCCNC(=O)c2ccco2)c1`, the cell number change was 5.71%. In addition, the AC50 under setting [2] was 0.731 µM [rising, partial curve, poor fit]. Consider `COc1ccc(OC)c(C(=O)c2ccc(C(=O)c3cc(OC)ccc3OC)cc2)c1`, for which the cell number change was determined as 45.5%. Moreover, the AC50 under setting [2] was 5.17 µM [rising, full curve]. In addition, the AC50 under setting [1] was 4.11 µM [rising, full curve]. For the compound `Cc1nnc(N/N=C/c2cccc(OCc3ccc(Cl)c(Cl)c3)c2)n1N`, the cell number change was -23.2%. Regarding `CN(C)/C=C(\C=O)c1onc(-c2ccccc2Cl)c1C#N`, the cell number change was 0.993%. Besides, the AC50 under setting [1] was 6.51 µM [falling, single point]. With `O=C(O)/C=C/S(=O)(=O)c1ccc2ccccc2c1`, the cell number change is -25.9%. Further, under setting [2], the AC50 was 4.11 µM [falling, full curve, poor fit]. The AC50 under setting [1] is 1.3 µM [falling, full curve]. For `O=C(CCS(=O)(=O)c1ccccc1)Nc1ccc(N2CCOCC2)cc1`, the cell number change was -5.29%.

On to `CCn1c2ccccc2c2cc(C3C(C#N)=C(N)Oc4n[nH]c(COC)c43)ccc21` (stereo unspecified), for which the cell number change was -10.2%. Further, the AC50 under setting [1] was 1.84 µM [rising, full curve].

For `O=C(Cn1nc(-c2ccccc2)c2ccccc2c1=O)NCCN1CCOCC1`, the cell number change was -21.6%. The same measure, in the same setting: under `COCCNC(=O)c1ccccc1NC(=O)c1cccc([N+](=O)[O-])c1C` stands 3.28%. Take `CC1(C)C2CCC1(C)C(OC(=O)CSc1nc(N)cc(=O)[nH]1)C2` (stereo unspecified): the cell number change is -22.3%. Under setting [1], the AC50 was 0.92 µM [falling, full curve]. Turning to `Cc1ccc(N(CC(=O)NCc2ccccc2)C(=O)CCC(=O)Nc2nccs2)cc1`, the cell number change is 32.5%. In addition, under setting [2], the AC50 is 25.9 µM [rising, single point]. For the same compound, under setting [1], the AC50 was 1.16 µM [falling, single point]. `O=C(NCCCNC(=O)c1ccccn1)c1cccc(F)c1`: the cell number change amounted to 4.76%. For `Clc1ccccc1OCCCCn1ccnc1`, the cell number change is 189%. Besides, the AC50 under setting [1] is 1.64 µM [rising, partial curve]. Regarding `N#Cc1cc(Oc2cccc3cccnc23)c(-n2nnc3ccccc32)cc1C#N`, the AC50 under setting [1] is 25.9 µM [falling, partial curve, poor fit].

For `O=C(O)CCC(=O)N1CCc2cc(S(=O)(=O)N3CCCCC3)ccc21`, the cell number change was -25%. In addition, the AC50 under setting [1] was 10.3 µM [falling, single point]. On to `Cc1ccc(C)c(C(=O)COC(=O)c2nn(C)c(=O)c3ccccc23)c1`, for which the cell number change came to 0.468%. Besides, the AC50 under setting [2] is 0.259 µM [falling, full curve, poor fit]. The AC50 under setting [1] was 0.366 µM [falling, full curve]. As to `CC(NC(=O)COC(=O)/C=C/c1ccc([N+](=O)[O-])cc1)c1ccccc1` (stereo unspecified), the cell number change amounted to 7.92%. Also, the half-maximal activity concentration (AC50) under setting [1] was 0.058 µM [falling, full curve]. As for `Cc1ccccc1-c1nc(CS(=O)CC(=O)NCc2ccc3c(c2)OCO3)c(C)o1` (stereo unspecified), the cell number change is -11.4%. For the same compound, the AC50 under setting [1] was 29.1 µM [rising, single point].

In the case of `Cc1cccc(NC(=O)c2ccc(NC(=O)c3ccccc3Br)cc2)c1`, the cell number change is -19.1%. Moreover, the AC50 under setting [1] is 1.16 µM [falling, partial curve, poor fit]. Regarding `CCOC(=O)c1sc2nccc(N(C)C)c2c1N=CN(C)C`, the cell number change amounted to 24.8%. Moreover, the AC50 under setting [1] is 29.1 µM [rising, single point]. For the compound `O=C(CSc1nnnn1-c1cccc(F)c1)NC1CCCCC1`, the cell number change is 22.6%. Further, the AC50 under setting [1] was 1.46 µM [falling, partial curve, poor fit]. As for `CC1Sc2ccc(S(=O)(=O)N3CCC(C(=O)NCc4ccc(Cl)cc4)CC3)cc2NC1=O` (stereo unspecified), the cell number change is -12.5%. Under setting [2], the AC50 is 0.82 µM [rising, single point].

For `COc1ccc(N(CC(=O)N/N=C(\C)c2cccs2)S(=O)(=O)c2ccccc2)cc1Cl`, the cell number change is 22.1%. For the same compound, the AC50 under setting [2] was 0.0206 µM [rising, full curve, poor fit]. Also, the AC50 under setting [1] was 29.1 µM [falling, single point]. As for `COC(=O)c1[nH]c2ccccc2c1Sc1ccccc1`, the cell number change was -2.13%. Consider `CCCOc1ccc(N2C(=O)CC(N(CCc3ccc(OC)c(OC)c3)C(=S)Nc3ccccc3)C2=O)cc1` (stereo unspecified), for which the cell number change was -7.21%. Moreover, the AC50 under setting [1] is 8.2 µM [falling, partial curve]. Regarding `CS(=O)(=O)c1cnc2c(S(=O)(=O)c3ccccc3)cnn2c1N`, the cell number change was -48.9%. The AC50 under setting [2] is 3.26 µM [falling, partial curve, poor fit]. Moreover, under setting [1], the AC50 is 0.0326 µM [falling, full curve].
